Test results published in US20140343124A1 (ROYAL INSTITUTION FOR THE ADVANCEMENT OF LEARNING MCGILL …, published 2014).
No constants are given. Whether binding was seen depends on the method and setting. Binding calls can cover weak binding; strength is not graded here.

Legend:
[1] = target: actin (actin stress fibers / actin cytoskeleton of glioma cells); assay: sub-cellular localisation by fluorescence microscopy
[2] = target: actin (actin stress fibers / actin cytoskeleton of glioma cells); assay: immunolabelling of wild-type U251 cells with anti-DRR antibody
[3] = target: actin (actin stress fibers / actin cytoskeleton of glioma cells); assay: localisation in transfected cells, actin labelled with phalloidin

binding [1]: binds | binding [2]: binds | binding [3]: binds
B1: downregulated in renal cell carcinoma (DRR), human, full-length (protein, UniProt O95990 1-144, looked up)
chain: MYSEIQRERADIGGLMARPEYREWNPELIKPKKLLNPVKASRSHQELHRELLMNHRRGLGVDSKPELQRVLEHRRRNQLIKKKKEELEAKRLQCPFEQELLRRQQRLNQLEKPPEKEEDHAPEFIKVRENLRRIATLTSEEREL
